# Screening data

Source: PubChem BioAssay AID1159506 (NCATS, 2015).

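Luminescence from an EWS-FLI1 target-promoter (NR0B1) reporter, set against a CMV-promoter reporter, two days after silencing single genes in TC32 Ewing sarcoma cells. Each siRNA was applied at 20 nM. A z-score of the log NR0B1-over-CMV signal, less the median of siRNAs with the same seed; more negative means a stronger specific loss of the NR0B1 reporter.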

The strongest results of the screen are mostly left out here. Sequences are the guide (antisense) strand, without overhang.

| Sequence | gene | seed-corrected z-score |
|---|---|---|
| `UCUCUUAGCAUCUUUAAGC` | TAF1A | 0.3957 |
| `UGCAUUUCAGAAUCCACCG` | KRT35 | -1.02 |
| `UUUGCUGACGUGUCUGUCC` | TMEM171 | -0.0545 |
| `UUUGUUAUAAAGUCACGGC` | TXLNGY | 0.582 |
| `AUCGUGAGCAGGGUAGAUC` | ETHE1 | -0.1727 |
| `UGGGUGGACAGACAAGUGA` | SAMD10 | -0.2522 |
| `AACGAGAAUCGAUAUACUG` | NCOA3 | 0.5376 |
| `UUGCGUAUGACUGUAAGGU` | LINC01376 | -0.7895 |
| `UUCGUAACACGGUGGUUUG` | PRR7 | 0.3635 |
| `UGUUAUCCAAGCUUCUACC` | AFTPH | 0.0008436 |
| `UCAACUCUCCCGUUGAGUC` | GSDMB | -0.04353 |
| `AUAGUUAGUGCAAUACUGG` | PLEKHG1 | 0.2488 |
| `UUUGAGGGAACCCACAUCC` | CRYBA2 | 1.568 |
| `UAGUCCUUCAGGUACAUGG` | KRI1 | -1.018 |
| `AACACUACCAGCAUCAUGG` | STRIP2 | -0.5131 |
| `UACCAGAAGUGGGACUUAG` | RPL18AP16 | 0.2951 |
| `UUUAGUCCUAAACAAUUCC` | ZNF749 | 0.6178 |
| `UUCUGAUAAGCAGUCACCG` | T | -0.8287 |
| `UUCAUGGCCACGUAGAAGC` | FGF22 | 0.2371 |
| `UUCCGAAUUCUUAUCGUCC` | WHAMMP2 | -0.3144 |
| `UACAGGGUAAAUUUGAAUG` | POLR2H | -1.302 |
| `UUCUGUAGCUGAGCUGUCC` | LOC285556 | -0.4719 |
| `ACUGUUUCCAGCGUCGUUG` | NKX1-1 | 0.9245 |
| `UCUUUUAAUAGGUCCCUAG` | DHX30 | -0.08656 |
| `AUUCAGGUCAGCUAAAGAC` | DMD | 0.2518 |
| `UCGAGUCUAAGAUCCAGCG` | NCAPD3 | 1.557 |
| `UUAGAUGCACCCGUUGCCU` | HIST1H1A | -0.1317 |
| `AAACCUUCUUUUGCUAUCG` | NRP1 | 0.05184 |
| `UCACGUAUUACCAUAACUC` | TNFSF9 | 1.118 |
| `UCCGGAUCUUCGCUAGUCC` | COL23A1 | 0.6614 |
| `UGCCUUGAAAGGUUCUUGC` | ADORA2A | -1.641 |
| `UUGGAUUGCUGAAUGCUCC` | TCN1 | 0.2379 |
| `UACUCGAACAUGAAGACGG` | GRIN2C | -0.716 |
| `AACAUAAAGGGAUAAUUUC` | RQCD1 | 0.1191 |
| `UUAAUCCAGGCGGUCAUCU` | PRY | 0.8925 |
| `UUUGUGCAUCUCGAUGUUC` | AES | -0.985 |
| `AGACUUCUGACAGUUAGCC` | ANKS1B | -0.2044 |
| `AAAGGCCUCAAACUCCUCC` | KLHL33 | 0.008818 |
| `UGUCAGCUCACGUUUGUGG` | ATG9A | -0.08847 |
| `UGAGUAAUGACUCUGACUC` | ZNF142 | -0.05679 |
| `UGGAGUUAGAAUUACGACC` | CSDE1 | 0.925 |
| `UUCCGGUUGGUUGAGGUUG` | FAT2 | -0.2654 |
| `UUUCUGCUGGAUAAAGUAC` | RADIL | -1.424 |
| `UUUCAUACAAGACCUAGGC` | ZBED3-AS1 | -1.399 |
| `UUCAUAUCUGGUGACAUGG` | AFTPH | -0.2428 |
| `UUGAGGACCGUCGAGUUUC` | SERTAD2 | 0.8983 |
| `UAACCUUUUGCACUAUUGC` | SMCO3 | 1.083 |
| `UACCGAAAUCUAAUCAUGG` | SENP5 | 0.4946 |
| `UACAUCAGCAUGGAACUGU` | TMEM42 | 0.173 |
| `UUCUGGUUUACAGGAUUUG` | ERCC6L2 | -1.717 |
| `AUCGUUCUGAAAGCGUAGC` | DENND2A | -0.9883 |

4 of the entries, repeated:

Sequence	gene	seed-corrected z-score
UUCCGAAUUCUUAUCGUCC	WHAMMP2	-0.3144
UACUCGAACAUGAAGACGG	GRIN2C	-0.716
AGACUUCUGACAGUUAGCC	ANKS1B	-0.2044
AAACCUUCUUUUGCUAUCG	NRP1	0.05184